Experimental data taken from paper PMC8583203, “DisA Restrains the Processing and Cleavage of Reversed Replication Forks by the RuvAB-RecU Resolvasome”.
Construct, isoform or probe ends are uncertain for at least one entry. For part of these data: A negative result means that nothing was seen under these conditions. Where a protein sequence is shown, tags need not be part of it. For part of these data: The comparison behind a weaker result is the experiment's own reference, which may not be listed here. For part of these data: At least one verdict was read from the data and is not stated in words by the source.

Assays:
[1] = target: T1, RuvB (Bacillus subtilis) (UniProt O32055); experiment: EMSA; conditions: ATPgS, 0.2% glutaraldehyde, no stable complex; 50 mM Tris-HCl pH 7.5, 50 mM NaCl, 1 mM DTT, 0.05 mg/mL BSA, 5% glycerol, 1 or 10 mM MgCl2 or 5 mM EDTA, 15 min 37 C, 0.2 nM DNA; native protein; label: 32P (5' by gamma-32P); folded or branched DNA
T1 sequence (looked up, limits assumed): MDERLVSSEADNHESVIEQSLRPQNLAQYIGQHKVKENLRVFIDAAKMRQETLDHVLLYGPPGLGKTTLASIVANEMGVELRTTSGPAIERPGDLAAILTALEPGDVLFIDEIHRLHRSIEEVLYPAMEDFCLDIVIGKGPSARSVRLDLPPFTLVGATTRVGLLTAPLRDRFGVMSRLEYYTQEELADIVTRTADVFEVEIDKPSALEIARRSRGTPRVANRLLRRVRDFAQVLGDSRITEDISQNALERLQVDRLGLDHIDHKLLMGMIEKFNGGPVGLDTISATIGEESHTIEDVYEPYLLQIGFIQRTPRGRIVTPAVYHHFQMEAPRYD

[2] = target: T2, DisA (Bacillus subtilis) (UniProt P37573); experiment: EMSA; conditions: 50 mM Tris-HCl pH 7.5, 50 mM NaCl, 1 mM DTT, 0.05 mg/mL BSA, 5% glycerol, 1 or 10 mM MgCl2 or 5 mM EDTA, 15 min 37 C, 0.2 nM DNA, label: 32P (5' by gamma-32P), folded or branched DNA; for binding result: recombinant protein
T2 sequence (looked up, limits assumed): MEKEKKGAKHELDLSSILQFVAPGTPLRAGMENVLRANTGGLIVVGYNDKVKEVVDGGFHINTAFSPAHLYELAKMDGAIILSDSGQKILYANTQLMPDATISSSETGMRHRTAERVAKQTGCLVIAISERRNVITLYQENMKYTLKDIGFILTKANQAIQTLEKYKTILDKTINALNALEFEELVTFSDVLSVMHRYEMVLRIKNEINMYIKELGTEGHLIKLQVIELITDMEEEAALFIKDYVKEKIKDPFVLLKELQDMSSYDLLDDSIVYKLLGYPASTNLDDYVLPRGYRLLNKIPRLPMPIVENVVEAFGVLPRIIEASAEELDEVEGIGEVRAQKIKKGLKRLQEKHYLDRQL

[3] = target: T1, RuvB (Bacillus subtilis); experiment: DNase I footprinting; conditions: 80 nM RuvB, 5 mM ATPgS, 10 mM Mg2+; 50 mM Tris-HCl pH 7.5, 50 mM NaCl, 1 mM DTT, 0.05 mg/mL BSA, 5% glycerol, 1 or 10 mM MgCl2 or 5 mM EDTA, 15 min 37 C, 0.2 nM DNA; native protein; label: 32P (5' by gamma-32P); folded or branched DNA
[4] = target: T2, DisA (Bacillus subtilis); experiment: DNase I footprinting; conditions: 10 mM Mg2+, 5 mM ATPgS, extended protection; 50 mM Tris-HCl pH 7.5, 50 mM NaCl, 1 mM DTT, 0.05 mg/mL BSA, 5% glycerol, 1 or 10 mM MgCl2 or 5 mM EDTA, 15 min 37 C, 0.2 nM DNA; recombinant protein; label: 32P (5' by gamma-32P); folded or branched DNA

Sequence: CGCAAGCGACAGGAACCTCGAGAAGCTTCCGGTAGCAGCCTGAGCGGTGGTTGAATTCCTCGAGGTTCCTGTCGCTTGCG / CGCAGCGACAGGAACCTCGAGGAATTCAACCACCGCTCAACTCAACTGCAGTCTGACTCGAGGTTCCTGTCGCTTGCG / CGCAAGCGACAGGAACCTCGAGTCTAGACTGCAGTTGAGTCCTTGCTAGGACGGATCCCTCAGGTTCCTGTCGCTTGCG / CGCAAGCGACAGGAACCTCGAGGGATCCGTCCTAGCAAGGGGCTGCTACCGGAAGCTTCTCGAGGTTCCTGTCGCTTGCG [HJ-J3 DNA (fixed Holliday junction)]
- binding result [1]: no binding
- Kd ([2]; 1 mM Mg2+, recombinant …): 18 nM
- binding result ([2]; 5 mM EDTA, no Mg2+): binds more weakly
- binding result ([2]; 10 mM Mg2+, 500 uM c-di-AMP): binds more weakly
- binding result [3]: no binding
- binding result [4]: binds
